Test results from PMC11324738.

By UniProt entry, the sequences of proteins in these tests, tags left out.
UniProt Q13585: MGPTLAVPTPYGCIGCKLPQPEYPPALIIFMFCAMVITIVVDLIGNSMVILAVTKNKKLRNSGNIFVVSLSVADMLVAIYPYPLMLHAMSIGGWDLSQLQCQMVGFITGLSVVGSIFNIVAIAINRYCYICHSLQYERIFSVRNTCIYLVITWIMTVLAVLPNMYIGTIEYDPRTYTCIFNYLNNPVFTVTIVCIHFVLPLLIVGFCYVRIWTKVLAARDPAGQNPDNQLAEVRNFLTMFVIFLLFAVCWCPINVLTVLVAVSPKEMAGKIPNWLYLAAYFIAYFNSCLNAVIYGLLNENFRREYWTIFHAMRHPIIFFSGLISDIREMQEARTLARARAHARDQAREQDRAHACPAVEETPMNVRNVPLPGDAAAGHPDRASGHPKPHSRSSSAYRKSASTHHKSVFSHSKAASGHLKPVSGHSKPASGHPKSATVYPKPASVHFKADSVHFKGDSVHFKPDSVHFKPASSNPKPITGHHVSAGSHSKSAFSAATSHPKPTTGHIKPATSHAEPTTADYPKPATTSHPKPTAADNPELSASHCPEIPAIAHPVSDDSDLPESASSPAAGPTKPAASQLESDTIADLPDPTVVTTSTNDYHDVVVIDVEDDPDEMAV
UniProt Q99497: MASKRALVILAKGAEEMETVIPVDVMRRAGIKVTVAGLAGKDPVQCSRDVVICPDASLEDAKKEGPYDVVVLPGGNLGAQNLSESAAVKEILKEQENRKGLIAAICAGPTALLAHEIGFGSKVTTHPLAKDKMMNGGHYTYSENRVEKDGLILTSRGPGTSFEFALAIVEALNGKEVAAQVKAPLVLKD
UniProt Q7Z6Z7: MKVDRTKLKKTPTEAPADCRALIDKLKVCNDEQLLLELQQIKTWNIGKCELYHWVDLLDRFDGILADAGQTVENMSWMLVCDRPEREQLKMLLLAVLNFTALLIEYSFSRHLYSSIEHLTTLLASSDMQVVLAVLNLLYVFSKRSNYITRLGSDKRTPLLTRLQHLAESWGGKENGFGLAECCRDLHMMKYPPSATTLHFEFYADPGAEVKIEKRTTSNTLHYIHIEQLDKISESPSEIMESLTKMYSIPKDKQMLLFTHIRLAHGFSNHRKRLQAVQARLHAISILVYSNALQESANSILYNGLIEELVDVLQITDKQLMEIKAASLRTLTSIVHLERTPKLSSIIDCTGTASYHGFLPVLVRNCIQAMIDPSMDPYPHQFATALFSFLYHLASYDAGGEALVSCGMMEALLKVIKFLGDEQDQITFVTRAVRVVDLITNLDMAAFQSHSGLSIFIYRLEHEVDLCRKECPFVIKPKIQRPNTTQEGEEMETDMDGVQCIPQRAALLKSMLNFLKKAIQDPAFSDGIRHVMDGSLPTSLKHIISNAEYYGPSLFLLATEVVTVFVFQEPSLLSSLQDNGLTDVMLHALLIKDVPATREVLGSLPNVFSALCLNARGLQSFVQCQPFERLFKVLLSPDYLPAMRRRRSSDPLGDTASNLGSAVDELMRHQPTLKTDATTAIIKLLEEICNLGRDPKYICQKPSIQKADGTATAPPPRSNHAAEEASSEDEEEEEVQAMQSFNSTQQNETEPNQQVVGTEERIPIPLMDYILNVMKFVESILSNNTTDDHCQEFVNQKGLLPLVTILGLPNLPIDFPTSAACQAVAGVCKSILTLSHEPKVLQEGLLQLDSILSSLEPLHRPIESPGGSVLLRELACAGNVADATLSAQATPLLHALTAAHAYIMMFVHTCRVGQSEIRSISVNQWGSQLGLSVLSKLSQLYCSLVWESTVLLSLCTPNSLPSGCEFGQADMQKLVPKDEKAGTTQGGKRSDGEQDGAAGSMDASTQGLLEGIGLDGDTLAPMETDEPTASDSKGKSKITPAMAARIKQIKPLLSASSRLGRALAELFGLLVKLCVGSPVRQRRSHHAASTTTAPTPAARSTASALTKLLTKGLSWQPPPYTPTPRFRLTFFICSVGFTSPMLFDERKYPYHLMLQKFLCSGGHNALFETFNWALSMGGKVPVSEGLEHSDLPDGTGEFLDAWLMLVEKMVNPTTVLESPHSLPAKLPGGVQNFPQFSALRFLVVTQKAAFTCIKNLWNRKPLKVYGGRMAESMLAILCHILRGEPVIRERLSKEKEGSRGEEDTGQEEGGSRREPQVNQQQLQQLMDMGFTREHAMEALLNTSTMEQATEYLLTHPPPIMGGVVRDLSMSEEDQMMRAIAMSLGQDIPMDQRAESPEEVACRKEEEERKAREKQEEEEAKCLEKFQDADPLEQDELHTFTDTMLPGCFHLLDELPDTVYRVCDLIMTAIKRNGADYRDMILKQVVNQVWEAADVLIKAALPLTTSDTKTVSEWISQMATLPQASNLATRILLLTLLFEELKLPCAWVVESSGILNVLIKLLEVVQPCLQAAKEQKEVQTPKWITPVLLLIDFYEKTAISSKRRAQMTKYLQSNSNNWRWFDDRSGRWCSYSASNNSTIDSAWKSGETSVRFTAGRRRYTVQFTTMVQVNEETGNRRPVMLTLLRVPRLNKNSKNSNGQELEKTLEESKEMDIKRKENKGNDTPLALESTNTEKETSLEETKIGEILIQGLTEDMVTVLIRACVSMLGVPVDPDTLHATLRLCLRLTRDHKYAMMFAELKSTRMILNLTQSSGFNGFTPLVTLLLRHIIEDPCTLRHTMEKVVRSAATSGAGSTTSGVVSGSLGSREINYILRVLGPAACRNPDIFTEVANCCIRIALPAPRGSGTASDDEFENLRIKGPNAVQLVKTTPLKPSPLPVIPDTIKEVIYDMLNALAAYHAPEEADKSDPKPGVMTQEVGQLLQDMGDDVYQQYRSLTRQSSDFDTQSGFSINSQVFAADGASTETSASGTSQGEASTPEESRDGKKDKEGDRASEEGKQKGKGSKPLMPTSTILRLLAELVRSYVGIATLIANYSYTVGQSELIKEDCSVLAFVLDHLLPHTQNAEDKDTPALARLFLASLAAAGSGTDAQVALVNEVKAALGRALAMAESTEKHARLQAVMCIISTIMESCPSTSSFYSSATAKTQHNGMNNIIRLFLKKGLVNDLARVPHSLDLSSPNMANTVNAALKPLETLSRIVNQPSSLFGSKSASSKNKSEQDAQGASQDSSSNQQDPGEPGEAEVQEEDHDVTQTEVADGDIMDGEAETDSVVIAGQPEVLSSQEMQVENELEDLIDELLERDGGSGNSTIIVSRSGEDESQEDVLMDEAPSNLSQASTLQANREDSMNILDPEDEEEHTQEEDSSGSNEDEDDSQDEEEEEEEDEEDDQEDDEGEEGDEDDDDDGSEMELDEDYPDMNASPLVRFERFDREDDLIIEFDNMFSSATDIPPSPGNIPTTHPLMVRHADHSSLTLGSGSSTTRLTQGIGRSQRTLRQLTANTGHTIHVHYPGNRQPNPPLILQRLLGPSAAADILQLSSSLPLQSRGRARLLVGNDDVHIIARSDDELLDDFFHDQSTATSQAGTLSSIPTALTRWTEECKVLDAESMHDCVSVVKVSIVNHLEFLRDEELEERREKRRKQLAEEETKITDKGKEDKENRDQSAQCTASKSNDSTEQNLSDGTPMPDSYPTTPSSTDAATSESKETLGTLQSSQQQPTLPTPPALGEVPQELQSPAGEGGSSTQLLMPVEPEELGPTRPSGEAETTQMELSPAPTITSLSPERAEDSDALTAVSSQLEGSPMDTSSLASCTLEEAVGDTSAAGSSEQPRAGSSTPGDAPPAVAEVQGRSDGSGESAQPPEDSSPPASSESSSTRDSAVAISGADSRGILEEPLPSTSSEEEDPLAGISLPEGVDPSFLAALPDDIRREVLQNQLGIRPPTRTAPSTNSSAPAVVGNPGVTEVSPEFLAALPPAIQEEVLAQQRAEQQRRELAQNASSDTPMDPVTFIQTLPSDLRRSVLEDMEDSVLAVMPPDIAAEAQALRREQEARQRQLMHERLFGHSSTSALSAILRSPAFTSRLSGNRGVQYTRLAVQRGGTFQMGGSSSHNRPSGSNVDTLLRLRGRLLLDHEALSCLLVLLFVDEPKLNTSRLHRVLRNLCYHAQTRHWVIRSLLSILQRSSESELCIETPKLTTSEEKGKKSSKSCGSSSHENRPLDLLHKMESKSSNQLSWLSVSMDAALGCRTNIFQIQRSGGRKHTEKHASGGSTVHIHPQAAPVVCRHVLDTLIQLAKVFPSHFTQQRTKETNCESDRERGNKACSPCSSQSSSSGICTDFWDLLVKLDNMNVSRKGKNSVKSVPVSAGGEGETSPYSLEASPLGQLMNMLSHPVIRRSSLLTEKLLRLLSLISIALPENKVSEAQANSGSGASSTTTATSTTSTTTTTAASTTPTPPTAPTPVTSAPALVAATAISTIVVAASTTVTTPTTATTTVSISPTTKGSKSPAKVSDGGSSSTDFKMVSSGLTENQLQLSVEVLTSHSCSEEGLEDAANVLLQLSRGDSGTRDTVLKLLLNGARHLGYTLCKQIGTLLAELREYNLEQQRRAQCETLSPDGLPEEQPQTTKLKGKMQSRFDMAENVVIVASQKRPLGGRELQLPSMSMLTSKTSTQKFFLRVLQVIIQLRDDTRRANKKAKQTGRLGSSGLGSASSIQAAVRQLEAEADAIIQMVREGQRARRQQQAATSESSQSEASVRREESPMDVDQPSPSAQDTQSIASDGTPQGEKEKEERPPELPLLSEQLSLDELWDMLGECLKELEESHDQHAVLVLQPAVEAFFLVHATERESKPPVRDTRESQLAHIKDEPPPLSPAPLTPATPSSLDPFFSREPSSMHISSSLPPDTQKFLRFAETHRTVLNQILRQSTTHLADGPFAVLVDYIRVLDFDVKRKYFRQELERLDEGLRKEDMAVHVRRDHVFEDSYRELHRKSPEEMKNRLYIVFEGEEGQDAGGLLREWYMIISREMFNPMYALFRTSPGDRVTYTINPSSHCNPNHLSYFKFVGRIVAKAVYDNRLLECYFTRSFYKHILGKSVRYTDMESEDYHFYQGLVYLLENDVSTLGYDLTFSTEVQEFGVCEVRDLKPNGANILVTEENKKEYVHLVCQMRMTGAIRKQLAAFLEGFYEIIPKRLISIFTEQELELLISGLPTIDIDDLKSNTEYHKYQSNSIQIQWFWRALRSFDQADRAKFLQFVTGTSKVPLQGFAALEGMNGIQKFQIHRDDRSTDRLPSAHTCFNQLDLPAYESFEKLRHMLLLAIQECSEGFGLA
UniProt Q9UKV5: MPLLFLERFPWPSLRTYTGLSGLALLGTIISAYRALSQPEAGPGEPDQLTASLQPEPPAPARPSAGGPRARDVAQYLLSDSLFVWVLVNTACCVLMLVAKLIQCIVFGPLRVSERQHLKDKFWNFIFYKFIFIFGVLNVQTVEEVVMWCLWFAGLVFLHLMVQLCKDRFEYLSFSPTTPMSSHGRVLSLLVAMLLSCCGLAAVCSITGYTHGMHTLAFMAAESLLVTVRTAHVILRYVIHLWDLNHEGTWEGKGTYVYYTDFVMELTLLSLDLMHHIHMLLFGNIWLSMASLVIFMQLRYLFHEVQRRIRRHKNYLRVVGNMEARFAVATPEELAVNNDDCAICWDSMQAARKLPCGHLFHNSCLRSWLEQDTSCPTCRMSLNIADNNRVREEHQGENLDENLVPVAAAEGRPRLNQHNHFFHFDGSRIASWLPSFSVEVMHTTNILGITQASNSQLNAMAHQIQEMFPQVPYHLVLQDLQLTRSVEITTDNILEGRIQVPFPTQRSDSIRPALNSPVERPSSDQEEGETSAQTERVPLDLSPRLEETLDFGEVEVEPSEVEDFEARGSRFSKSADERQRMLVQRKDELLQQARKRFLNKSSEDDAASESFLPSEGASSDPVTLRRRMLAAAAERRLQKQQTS
UniProt Q8IXI2: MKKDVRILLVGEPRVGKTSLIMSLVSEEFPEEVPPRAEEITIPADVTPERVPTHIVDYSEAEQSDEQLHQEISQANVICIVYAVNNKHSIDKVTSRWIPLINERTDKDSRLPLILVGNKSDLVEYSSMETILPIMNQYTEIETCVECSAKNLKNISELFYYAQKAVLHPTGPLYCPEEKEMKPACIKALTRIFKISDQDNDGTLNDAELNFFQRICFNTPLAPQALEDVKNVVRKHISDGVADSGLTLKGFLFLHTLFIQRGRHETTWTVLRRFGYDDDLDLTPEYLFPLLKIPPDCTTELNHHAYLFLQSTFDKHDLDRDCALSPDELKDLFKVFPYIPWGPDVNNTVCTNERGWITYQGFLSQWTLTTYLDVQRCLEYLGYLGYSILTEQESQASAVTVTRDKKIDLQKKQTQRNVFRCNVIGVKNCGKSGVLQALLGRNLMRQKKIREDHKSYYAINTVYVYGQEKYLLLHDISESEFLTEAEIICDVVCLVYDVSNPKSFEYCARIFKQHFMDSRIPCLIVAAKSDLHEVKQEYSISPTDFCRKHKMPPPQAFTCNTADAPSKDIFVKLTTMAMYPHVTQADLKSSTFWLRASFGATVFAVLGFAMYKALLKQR

The molecules below were run against GPR50-V1 and GPR50-V2 homodimer (GPR50 fused to the V1 or V2 segment of Venus, BiCAP bait) (human) (UniProt Q13585) (assay: affinity purification with mass spectrometry; BiCAP: HEK 293T co-transfected with GPR50-V1 and GPR50-V2 for 30 h; RIPA lysate incubated with GFP-trap beads overnight at 4 °C; on-bead trypsin digest, LC-MS/MS).

Row | binding | Molecule
1 | binds | SQSTM1 (from UniProt Q13501 1-440)
2 | binds | PARK7 (from UniProt Q99497 1-189)
3 | binds | HUWE1 (from UniProt Q7Z6Z7 1-4374) (enzyme)
4 | binds | AMFR (from UniProt Q9UKV5 1-643) (enzyme)
5 | binds | RHOT1 (from UniProt Q8IXI2 1-618)
6 | binds | VDAC1 (from UniProt P21796 1-283)
7 | binds | VCP (from UniProt P55072 1-806)
8 | binds | MARK2 (from UniProt Q7KZI7 1-788) (enzyme)
9 | binds | FKBP8 (from UniProt Q14318 1-412)
10 | binds | HK2 (enzyme, UniProt P52789 1-917) MIASHLLAYFFTELNHDQVQKVDQYLYHMRLSDETLLEISKRFRKEMEKGLGATTHPTAAVKMLPTFVRSTPDGTEHGEFLALDLGGTNFRVLWVKVTDNGLQKVEMENQIYAIPEDIMRGSGTQLFDHIAECLANFMDKLQIKDKKLPLGFTFSFPCHQTKLDESFLVSWTKGFKSSGVEGRDVVALIRKAIQRRGDFDIDIVAVVNDTVGTMMTCGYDDHNCEIGLIVGTGSNACYMEEMRHIDMVEGDEGRMCINMEWGAFGDDGSLNDIRTEFDQEIDMGSLNPGKQLFEKMISGMYMGELVRLILVKMAKEELLFGGKLSPELLNTGRFETKDISDIEGEKDGIRKAREVLMRLGLDPTQEDCVATHRICQIVSTRSASLCAATLAAVLQRIKENKGEERLRSTIGVDGSVYKKHPHFAKRLHKTVRRLVPGCDVRFLRSEDGSGKGAAMVTAVAYRLADQHRARQKTLEHLQLSHDQLLEVKRRMKVEMERGLSKETHASAPVKMLPTYVCATPDGTEKGDFLALDLGGTNFRVLLVRVRNGKWGGVEMHNKIYAIPQEVMHGTGDELFDHIVQCIADFLEYMGMKGVSLPLGFTFSFPCQQNSLDESILLKWTKGFKASGCEGEDVVTLLKEAIHRREEFDLDVVAVVNDTVGTMMTCGFEDPHCEVGLIVGTGSNACYMEEMRNVELVEGEEGRMCVNMEWGAFGDNGCLDDFRTEFDVAVDELSLNPGKQRFEKMISGMYLGEIVRNILIDFTKRGLLFRGRISERLKTRGIFETKFLSQIESDCLALLQVRAILQHLGLESTCDDSIIVKEVCTVVARRAAQLCGAGMAAVVDRIRENRGLDALKVTVGVDGTLYKLHPHFAKVMHETVKDLAPKCDVSFLQSEDGSGKGAALITAVACRIREAGQR
11 | binds | CERS1 (protein, UniProt P27544 1-350) MAAAGPAAGPTGPEPMPSYAQLVQRGWGSALAAARGCTDCGWGLARRGLAEHAHLAPPELLLLALGALGWTALRSAATARLFRPLAKRCCLQPRDAAKMPESAWKFLFYLGSWSYSAYLLFGTDYPFFHDPPSVFYDWTPGMAVPRDIAAAYLLQGSFYGHSIYATLYMDTWRKDSVVMLLHHVVTLILIVSSYAFRYHNVGILVLFLHDISDVQLEFTKLNIYFKSRGGSYHRLHALAADLGCLSFGFSWFWFRLYWFPLKVLYATSHCSLRTVPDIPFYFFFNALLLLLTLMNLYWFLYIVAFAAKVLTGQVHELKDLREYDTAEAQSLKPSKAEKPLRNGLVKDKRF

These are yes or no findings as the source states them, for the method shown. Binding seen in cells or lysates may run through a third protein. These calls come from enrichment with a bait or labelling near it, and not all partners need be listed.
